Data taken from patent US20110003849A1, “SOLUBLE EPOXIDE HYDROLASE INHIBITORS, COMPOSITIONS CONTAINING SUCH COMPOUNDS AND METHODS OF TREATMENT” (priority 2008, published 2011).
Structures were worked out from names or drawings and are uncertain.

Protein sequences, listed by entry. Tags and fused reporters are not part of them.
UniProt P34913, whole entry: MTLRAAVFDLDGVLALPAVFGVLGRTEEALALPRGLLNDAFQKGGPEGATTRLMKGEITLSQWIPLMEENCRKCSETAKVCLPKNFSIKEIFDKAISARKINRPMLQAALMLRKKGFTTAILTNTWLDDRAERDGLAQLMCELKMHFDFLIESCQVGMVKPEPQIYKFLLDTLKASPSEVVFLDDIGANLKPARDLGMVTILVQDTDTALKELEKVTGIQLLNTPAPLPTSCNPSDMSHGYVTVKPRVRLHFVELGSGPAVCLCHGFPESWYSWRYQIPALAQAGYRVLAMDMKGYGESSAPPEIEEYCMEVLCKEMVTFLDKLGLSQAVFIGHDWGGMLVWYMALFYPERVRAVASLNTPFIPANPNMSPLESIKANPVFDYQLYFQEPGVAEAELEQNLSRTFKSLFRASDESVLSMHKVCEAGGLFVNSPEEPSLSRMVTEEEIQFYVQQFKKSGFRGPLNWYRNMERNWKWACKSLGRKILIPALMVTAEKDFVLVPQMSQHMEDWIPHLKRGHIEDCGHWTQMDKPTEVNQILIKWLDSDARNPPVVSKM

Target: human sEH enzyme (Homo sapiens, UniProt P34913)
Test: sEH Human Enzyme Assay (fluorescence based enzyme in vitro assay)
Details: read-out: IC50 [nM] for human sEH enzyme inhibition; recombinant full length human sEH about 1 nM, fluorescence substrate S7 10 uM, pH7.0, 25° C.
From the text: Preparation of Recombinant sEH Human Enzyme
The DNA for expressing sEH was designed based on a […] sEH cDNA, modified to optimize for expression both in E. coli and insect cells. The designed DNA fragment encodes a protein sequence that is identical to full length human sEH, and the DNA was synthesized in vitro. The DNA was then subcloned into the pET100 vector that will generate a fusion protein with an N-terminal His-tag. The recombinant protein was expressed in E. coli. The sEH enzyme was affinity purified by a Ni^++ column. His-tag was removed by Enter Kinase (EK) digestion. The purified enzyme aliquots were frozen and held at −80° C. for later use.
Fluorescence Based Enzyme In Vitro Assay,
For each assay (100 ul), an aliquot of enzymes (about 1 nM final concentration) was incubated with a fluorescence substrate, S7 (10 uM final concentration), in sEH assay buffer (25 mM HEPES, pH7.0, 0.1 mg/ml BSA) in a 96-well plate. The kinetic reaction reading (Ex330/Em465) was conducted using a plate reader, Spectra max (Molecular Devices) at 25° C.

Cn1cc(-c2noc(C3(C)CC4CCC3N(C(=O)Nc3ccc(C(F)(F)F)cc3)C4)n2)c2ccccc21 (stereo not shown)
IC50: 2 nM
